The values below come from patent US20150337309.

By UniProt entry, the sequences of proteins in these tests, tags left out. Residues count along the entry.
UniProt Q15063, 22-836: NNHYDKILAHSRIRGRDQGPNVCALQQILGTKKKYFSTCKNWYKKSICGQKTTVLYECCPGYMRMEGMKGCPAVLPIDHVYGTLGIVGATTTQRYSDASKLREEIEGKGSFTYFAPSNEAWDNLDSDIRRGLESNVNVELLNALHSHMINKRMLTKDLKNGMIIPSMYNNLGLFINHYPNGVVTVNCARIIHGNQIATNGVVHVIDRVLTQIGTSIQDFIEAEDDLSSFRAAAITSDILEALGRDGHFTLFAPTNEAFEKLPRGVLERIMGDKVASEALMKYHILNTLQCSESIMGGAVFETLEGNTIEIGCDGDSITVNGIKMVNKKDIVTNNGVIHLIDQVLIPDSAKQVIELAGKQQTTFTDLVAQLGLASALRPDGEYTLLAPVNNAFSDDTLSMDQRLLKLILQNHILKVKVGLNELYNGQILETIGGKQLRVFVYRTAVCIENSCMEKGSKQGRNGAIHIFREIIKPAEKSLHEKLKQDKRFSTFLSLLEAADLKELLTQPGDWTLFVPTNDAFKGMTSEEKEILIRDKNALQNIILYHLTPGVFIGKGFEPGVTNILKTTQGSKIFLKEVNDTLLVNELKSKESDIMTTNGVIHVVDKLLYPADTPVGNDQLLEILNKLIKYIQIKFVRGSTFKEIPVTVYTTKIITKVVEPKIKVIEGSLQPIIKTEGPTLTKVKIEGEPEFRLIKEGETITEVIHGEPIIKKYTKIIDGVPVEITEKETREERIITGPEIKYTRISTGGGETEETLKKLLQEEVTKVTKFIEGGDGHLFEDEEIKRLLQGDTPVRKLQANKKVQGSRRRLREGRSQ
UniProt Q62009, 24-838: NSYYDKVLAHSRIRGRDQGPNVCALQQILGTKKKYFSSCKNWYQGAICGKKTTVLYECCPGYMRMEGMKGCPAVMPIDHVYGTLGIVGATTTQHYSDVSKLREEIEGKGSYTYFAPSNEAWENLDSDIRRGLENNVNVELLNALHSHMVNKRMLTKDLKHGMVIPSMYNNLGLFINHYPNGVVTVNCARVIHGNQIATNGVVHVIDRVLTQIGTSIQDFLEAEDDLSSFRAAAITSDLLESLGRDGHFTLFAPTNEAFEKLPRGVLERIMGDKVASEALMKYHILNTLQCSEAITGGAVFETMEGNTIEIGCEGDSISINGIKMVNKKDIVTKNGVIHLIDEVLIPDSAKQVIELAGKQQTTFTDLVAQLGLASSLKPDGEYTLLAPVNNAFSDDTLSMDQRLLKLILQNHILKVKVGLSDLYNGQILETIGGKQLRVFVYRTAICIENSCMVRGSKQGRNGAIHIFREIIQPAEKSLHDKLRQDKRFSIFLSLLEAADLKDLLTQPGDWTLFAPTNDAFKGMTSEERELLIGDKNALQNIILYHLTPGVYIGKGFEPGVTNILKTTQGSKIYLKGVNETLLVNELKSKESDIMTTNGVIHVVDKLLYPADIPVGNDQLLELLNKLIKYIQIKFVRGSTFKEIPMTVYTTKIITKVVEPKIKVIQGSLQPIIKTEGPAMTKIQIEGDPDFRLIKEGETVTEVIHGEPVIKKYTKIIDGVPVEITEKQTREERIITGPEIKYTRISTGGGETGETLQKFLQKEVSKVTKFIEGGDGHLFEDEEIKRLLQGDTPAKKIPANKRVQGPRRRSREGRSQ

The target in data set [1] is periostin (Homo sapiens) (UniProt Q15063). As to the kind of experiment: competition with a labelled probe. Particulars: BndU at all n [n positions 7,12,15,28,39 = modified dU]; does not compete with labelled PNDA-3; unlabelled PNDA-3 does; purified recombinant protein; single-stranded DNA.
The target of another data set is periostin on 4T1 cells (UniProt Q62009). In words: flow cytometry. Conditions: protein on the cell surface, protein details: endogenous, 4T1 breast cancer cells, single-stranded DNA. (A flow cytometer gives signals particle by particle.)
The target in data set [2] is periostin (Homo sapiens) (UniProt Q15063). As to the kind of experiment: pull-down. Conditions: purified recombinant protein, single-stranded DNA.
In data set [3] the target is periostin full length (Homo sapiens) (UniProt Q15063). In words: pull-down. Particulars: BndU at all n [BndU at 6,7,9,14,16,21,22,26,28,31,34,35,44]; biotin-PNDA-3, 4 C; protein in a lysate after overexpression; protein details: GFP fusion (anti-GFP detection), 293T lysate; label: 32P, biotin or Cy3 depending on assay; single-stranded DNA; letters built from the parent sequence and the stated change; variant of clone 8 full length.

Another data set deals with periostin (Mus musculus) (UniProt Q62009). As to the kind of experiment: filter binding. Conditions: BndU at all n [BndU at 6,7,9,14,16,21,22,26,28,31,34,35,44]; purified recombinant protein; label: 32P, biotin or Cy3 depending on assay; single-stranded DNA; letters built from the parent sequence and the stated change; variant of clone 8 full length.
The subject of the next data set is IgG (Homo sapiens). In words: filter binding. Particulars: BndU at all n [BndU at 6,7,9,14,16,21,22,26,28,31,34,35,44]; specificity control; purified native protein; protein details: Sigma; label: 32P, biotin or Cy3 depending on assay; single-stranded DNA; letters built from the parent sequence and the stated change; variant of clone 8 full length.
For data set [4], the target named is T1, betaIG-H3 (TGFBI) (Homo sapiens) (UniProt Q15582).
T1 sequence (looked up, limits assumed): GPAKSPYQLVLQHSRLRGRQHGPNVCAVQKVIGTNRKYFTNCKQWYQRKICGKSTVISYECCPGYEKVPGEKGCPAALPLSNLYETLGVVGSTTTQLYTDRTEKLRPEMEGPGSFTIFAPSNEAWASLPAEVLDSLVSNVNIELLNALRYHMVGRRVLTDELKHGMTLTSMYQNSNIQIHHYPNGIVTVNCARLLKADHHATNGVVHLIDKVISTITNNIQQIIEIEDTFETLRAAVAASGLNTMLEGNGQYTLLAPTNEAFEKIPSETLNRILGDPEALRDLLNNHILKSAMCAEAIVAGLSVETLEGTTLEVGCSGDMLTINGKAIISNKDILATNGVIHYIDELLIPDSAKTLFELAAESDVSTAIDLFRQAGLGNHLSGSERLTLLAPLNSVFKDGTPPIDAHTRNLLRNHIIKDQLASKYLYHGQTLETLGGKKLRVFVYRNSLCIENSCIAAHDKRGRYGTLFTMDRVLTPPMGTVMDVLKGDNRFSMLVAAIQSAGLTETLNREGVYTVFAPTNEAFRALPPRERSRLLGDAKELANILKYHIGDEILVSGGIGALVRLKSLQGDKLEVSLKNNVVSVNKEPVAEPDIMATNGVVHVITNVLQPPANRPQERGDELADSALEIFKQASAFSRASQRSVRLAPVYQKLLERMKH
As to the kind of experiment: filter binding. Particulars: BndU at all n [BndU at 6,7,9,14,16,21,22,26,28,31,34,35,44]; binds at a low ratio; purified recombinant protein; protein details: R&D Systems; label: 32P, biotin or Cy3 depending on assay; single-stranded DNA; letters built from the parent sequence and the stated change; variant of clone 8 full length.

For part of these data: No signal at the amounts used counts as a negative. For part of these data: Weaker means in comparison with the reference protein, sequence or condition of that experiment. For part of these data: Protein sequences can lack the tags named with them. For part of these data: Results from cells or extracts need not show a direct contact. For part of these data: Construct, isoform or probe ends are uncertain for at least one entry.

As to “ACGAGGTACGGTGCTGAAGGACCAGACTGAACCGCACATGCGACAAAACAA [control aptamer CTL]”, the binding result with periostin (Homo sapiens) [1] is reported as “no binding”; with periostin on 4T1 cells (BndU at all n [n positions 7,12,15,28,39 = modified dU], control aptamer on 4T1 cells), “no binding”; in the data set with periostin (Homo sapiens) [2] (BndU at all n [n positions 7,12,15,28,39 = modified dU], control aptamer does not detect periostin in serum), “no binding”.
Turning to “ACGAGTTGTCGCATGTGCGGTTCAGTCTGGTCCTTCAGCACCGTACAACAA [PNDA-3]”, the binding result with periostin on 4T1 cells (BndU at all n [BndU at 6,7,9,14,16,21,22,26,28,31,34,35,44], 100 nM Cy3-PNDA-3, 4 C, no binding above background to periostin-negative MCF7, label: 32P, biotin or Cy3 depending on assay, letters built from the parent sequence and the stated change, variant of clone 8 full length) is recorded as “binds”; with periostin (Homo sapiens) [2] (BndU at all n [BndU at 6,7,9,14,16,21,22,26,28,31,34,35,44], biotin-PNDA-3, 10 nM periostin in 10% FBS, dose dependent, label: 32P, biotin or Cy3 depending on assay, letters built from the parent sequence and the stated change, variant of clone 8 full length), “binds”; in data set [3], “binds”; with periostin (Mus musculus), “binds”; in the data set on IgG (Homo sapiens), “no binding”; in data set [4], “binds more weakly”.
